This note sets out measurements from article PMC2682573, “A Novel Two Mode-Acting Inhibitor of ABCG2-Mediated Multidrug Transport and Resistance in Cancer Chemotherapy” (PLoS ONE, 2009).

These are yes or no findings as the source states them, for the method shown. Binding seen in cells or lysates may run through a third protein. Some results given as binding are weak or reduced against the parent protein; the word gives no strength. Where a sequence is shown, tags or fusion partners need not be part of it.

In this assay the target is T1, Myc- and HA-tagged ABCG2 (human), Q9UNQ0.
T1 chain: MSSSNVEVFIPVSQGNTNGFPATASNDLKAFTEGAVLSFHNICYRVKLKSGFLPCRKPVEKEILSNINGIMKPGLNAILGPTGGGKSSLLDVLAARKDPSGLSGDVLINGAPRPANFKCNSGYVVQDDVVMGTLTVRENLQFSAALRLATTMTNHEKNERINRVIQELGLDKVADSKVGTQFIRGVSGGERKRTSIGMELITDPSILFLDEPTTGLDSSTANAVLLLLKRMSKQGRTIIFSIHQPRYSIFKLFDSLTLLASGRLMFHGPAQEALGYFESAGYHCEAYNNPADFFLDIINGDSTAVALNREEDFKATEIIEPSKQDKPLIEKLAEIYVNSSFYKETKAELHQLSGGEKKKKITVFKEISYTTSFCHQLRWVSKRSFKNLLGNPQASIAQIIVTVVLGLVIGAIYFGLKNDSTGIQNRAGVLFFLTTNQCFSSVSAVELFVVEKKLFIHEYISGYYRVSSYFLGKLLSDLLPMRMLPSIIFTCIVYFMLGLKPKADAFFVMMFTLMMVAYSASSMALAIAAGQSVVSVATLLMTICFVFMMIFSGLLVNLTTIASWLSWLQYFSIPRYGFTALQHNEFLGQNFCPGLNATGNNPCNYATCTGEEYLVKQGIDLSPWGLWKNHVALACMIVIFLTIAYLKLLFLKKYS
Description: co-IP; HEK293 cells co-transfected with Myc- and HA-tagged ABCG2, exposed to 3.3 µM PZ-39 for 6 hrs; cell lysates immunoprecipitated with anti-Myc or anti-HA monoclonal antibody, western blot probed with anti-HA and anti-Myc antibody. Conditions: remark: other sources report otherwise.

B1: Myc- and HA-tagged ABCG2, Q9UNQ0 1-655 (protein)
chain: MSSSNVEVFIPVSQGNTNGFPATASNDLKAFTEGAVLSFHNICYRVKLKSGFLPCRKPVEKEILSNINGIMKPGLNAILGPTGGGKSSLLDVLAARKDPSGLSGDVLINGAPRPANFKCNSGYVVQDDVVMGTLTVRENLQFSAALRLATTMTNHEKNERINRVIQELGLDKVADSKVGTQFIRGVSGGERKRTSIGMELITDPSILFLDEPTTGLDSSTANAVLLLLKRMSKQGRTIIFSIHQPRYSIFKLFDSLTLLASGRLMFHGPAQEALGYFESAGYHCEAYNNPADFFLDIINGDSTAVALNREEDFKATEIIEPSKQDKPLIEKLAEIYVNSSFYKETKAELHQLSGGEKKKKITVFKEISYTTSFCHQLRWVSKRSFKNLLGNPQASIAQIIVTVVLGLVIGAIYFGLKNDSTGIQNRAGVLFFLTTNQCFSSVSAVELFVVEKKLFIHEYISGYYRVSSYFLGKLLSDLLPMRMLPSIIFTCIVYFMLGLKPKADAFFVMMFTLMMVAYSASSMALAIAAGQSVVSVATLLMTICFVFMMIFSGLLVNLTTIASWLSWLQYFSIPRYGFTALQHNEFLGQNFCPGLNATGNNPCNYATCTGEEYLVKQGIDLSPWGLWKNHVALACMIVIFLTIAYLKLLFLKKYS
On to B1, for which the binding result is “binds”.
